Data reported in article PMC12431657, “Discovery and mechanistic insights of dibenzoylmethane as a broad spectrum inhibitor of coronavirus” (PLOS Pathogens, 2025).
Counter-ions that a name gives are not always drawn. Like-named read-outs stand apart in the source and are kept apart here. The whole screen tested about 3,300 compounds, of which about 60 (2%) showed an effect of 50% or more. This is one part of the list. Peptide text beside a SMILES is read from it.

Test system: HCoV-OC43
Set-up: species or system RD; HTS, protection from HCoV-OC43 induced cell death, luminescent cell viability (CellCounting-Lite 2.0), inhibition rate
Settings: 24 h post infection, 1 h compound pre-incubation, 10 µM, inhibitor

Structure (SMILES)	OC43 Inhibition rate [%]	OC43 Inhibition rate (OC43 Inhibition rate, 24 h) [%]
O=C1NCN(c2ccccc2)C12CCN(CCCOc1ccc(F)cc1)CC2 [Spiramide]	69.6	
CC[C@]12CCCN3CCc4c(n(c5ccccc45)[C@@](O)(C(=O)OC)C1)[C@@H]32 [Vincamine]	-0.1	
CC(CC(=O)C[C@@H](C)[C@H]1CC(=O)[C@@]2(C)C3=C(C(=O)C[C@]12C)[C@@]1(C)CCC(=O)C(C)(C)[C@@H]1C[C@@H]3O)C(=O)O (stereo partly drawn) [Ganoderic acid D]	0	
CNCC(O)c1ccc(O)cc1 (stereo not drawn) [Synephrine (hydrochloride)]		0.4
NC(N)=NCCCC[C@H](N)C(=O)O [H-HomoArg-OH.HCl]	1.2	
O=C(CCCCCCCCc1ccc(O)c(O)c1)c1c(O)cccc1O [Malabaricone C]	12.2	
CNC[C@@H]1CC[C@@H](N)[C@@H](O[C@H]2[C@H](O)[C@@H](O[C@H]3OC[C@](C)(O)[C@H](NC)[C@H]3O)[C@H](N)C[C@@H]2N)O1 [Micronomicin (sulfate)]	-0.4	
CC(=O)O[C@H](CC(=O)[O-])C[N+](C)(C)C [Acetyl-L-carnitine (hydrochloride)]	1.3	
OC1COC(O)CO1 (stereo not drawn) [1,4-Dioxane-2,5-diol]	1.3	
O=c1[nH]cc([C@@H]2O[C@H](CO)[C@@H](O)[C@H]2O)c(=O)[nH]1 [Pseudouridine]	0.3	
O=Cc1cc(O)ccc1O [2,5-Dihydroxybenzaldehyde]	-5	
Cc1cc(O)c(C)c2c1O[C@](C)(CCC[C@H](C)CCC[C@H](C)CCCC(C)C)CC2 [β-Tocopherol]	1.6	
CC(=O)[C@H]1CC[C@H]2[C@@H]3C[C@H](O)[C@H]4C[C@@H](O)CC[C@]4(C)[C@H]3CC[C@]12C [5α-Pregnane-3β,6α-diol-20-one]	0.1	
O=c1cc(O)cc(/C=C/c2ccc(O)c(O)c2)o1 [Hispidin]	0.1	
COc1c(O)cc(O)c2c(=O)cc(-c3ccccc3)oc12 [Wogonin]	5.8	
C[C@@H](O)CC(=O)O [(R)-3-Hydroxybutanoic acid (sodium)]		3.4
CCCCCCCCCCCC(=O)O [Lauric acid]	4	
Oc1cc(O)cc(/C=C/c2c(O)cccc2O)c1 [Gnetol]	-1	
COC(=O)/C=C/c1ccc(O)c(O)c1 [Methyl caffeate]	3	
CC(C)C[C@H](NC(=O)[C@H](C)N)C(=O)O [L-Alanyl-L-leucine] (H-Ala-Leu-OH)	-0.2	
COc1c(O)c(=O)n2c3ccccc3c3ccnc1c32 [Nigakinone]	6.4	

Another view of some results above:
Structure (SMILES),OC43 Inhibition rate [%],"OC43 Inhibition rate (OC43 Inhibition rate, 24 h) [%]"
CC(CC(=O)C[C@@H](C)[C@H]1CC(=O)[C@@]2(C)C3=C(C(=O)C[C@]12C)[C@@]1(C)CCC(=O)C(C)(C)[C@@H]1C[C@@H]3O)C(=O)O (stereo partly drawn) [Ganoderic acid D],0,
CNCC(O)c1ccc(O)cc1 (stereo not drawn) [Synephrine (hydrochloride)],,0.4
NC(N)=NCCCC[C@H](N)C(=O)O [H-HomoArg-OH.HCl],1.2,
O=C(CCCCCCCCc1ccc(O)c(O)c1)c1c(O)cccc1O [Malabaricone C],12.2,
CNC[C@@H]1CC[C@@H](N)[C@@H](O[C@H]2[C@H](O)[C@@H](O[C@H]3OC[C@](C)(O)[C@H](NC)[C@H]3O)[C@H](N)C[C@@H]2N)O1 [Micronomicin (sulfate)],-0.4,
CC(=O)O[C@H](CC(=O)[O-])C[N+](C)(C)C [Acetyl-L-carnitine (hydrochloride)],1.3,
"OC1COC(O)CO1 (stereo not drawn) [1,4-Dioxane-2,5-diol]",1.3,
O=c1[nH]cc([C@@H]2O[C@H](CO)[C@@H](O)[C@H]2O)c(=O)[nH]1 [Pseudouridine],0.3,
"O=Cc1cc(O)ccc1O [2,5-Dihydroxybenzaldehyde]",-5,
Cc1cc(O)c(C)c2c1O[C@](C)(CCC[C@H](C)CCC[C@H](C)CCCC(C)C)CC2 [β-Tocopherol],1.6,
"CC(=O)[C@H]1CC[C@H]2[C@@H]3C[C@H](O)[C@H]4C[C@@H](O)CC[C@]4(C)[C@H]3CC[C@]12C [5α-Pregnane-3β,6α-diol-20-one]",0.1,
O=c1cc(O)cc(/C=C/c2ccc(O)c(O)c2)o1 [Hispidin],0.1,
COc1c(O)cc(O)c2c(=O)cc(-c3ccccc3)oc12 [Wogonin],5.8,
C[C@@H](O)CC(=O)O [(R)-3-Hydroxybutanoic acid (sodium)],,3.4
CCCCCCCCCCCC(=O)O [Lauric acid],4,
Oc1cc(O)cc(/C=C/c2c(O)cccc2O)c1 [Gnetol],-1,

(continued)

Structure (SMILES)	OC43 Inhibition rate [%]	OC43 Inhibition rate (OC43 Inhibition rate, 24 h) [%]
C[C@@H]1CC[C@]2(C(=O)O[C@@H]3O[C@H](CO)[C@@H](O)[C@H](O)[C@H]3O)CC[C@]3(C)C(=CC[C@@H]4[C@@]5(C)C[C@@H](O)[C@H](O)C(C)(C)[C@@H]5CC[C@]43C)[C@@H]2[C@]1(C)O [Rosamultin]	1	
O=c1c(O[C@@H]2O[C@H](CO)[C@@H](O)[C@H](O)[C@H]2O[C@@H]2O[C@H](CO)[C@@H](O)[C@H](O)[C@H]2O)c(-c2ccc(O)c(O)c2)oc2cc(O)cc(O)c12 [Baimaside]	0.7	
COc1ccc(-c2oc3c(CC=C(C)C)c(O)cc(O)c3c(=O)c2O)cc1 [Icaritin]	0.1	
O=c1cc(-c2ccccc2)oc2ccc(O)cc12 [6-Hydroxyflavone]	7.7	
O=C(O)c1cc(O)cc(O)c1 [3,5-Dihydroxybenzoic acid]	-1.1	
Oc1cc(O)c2c(c1)OC(c1ccc(O)c(O)c1)C(O)C2O (stereo not drawn) [Leucocyanidin]	0.2	
NCCCCC(N)C(=O)O (racemic) [DL-Lysine]	-8.8	
C[C@H]1CC[C@]2(NC1)O[C@H]1C[C@H]3[C@@H]4CC[C@H]5C[C@@H](O)CC[C@]5(C)[C@H]4CC[C@]3(C)[C@H]1[C@@H]2C [Tomatidine]		4.3
O=C[C@H](O)[C@@H](O)[C@H](O[C@H]1O[C@H](CO)[C@@H](O[C@H]2O[C@H](CO)[C@@H](O[C@H]3O[C@H](CO)[C@@H](O[C@H]4O[C@H](CO)[C@@H](O)[C@H](O)[C@H]4O)[C@H](O)[C@H]3O)[C@H](O)[C@H]2O)[C@H](O)[C@H]1O)[C@H](O)CO [Maltopentaose]	2.8	
COc1cc2c(c(O)c1OC)-c1c(cc(OC)c(OC)c1OC)C[C@@H](C)[C@@H](C)C2 [Schisanhenol]	2	
Oc1ccc(O)c(O)c1 [1,2,4-Trihydroxybenzene]	-0.2	
CC(C)=C1CC[C@@H](C)CC1=O [Pulegone]	-1.4	
Cc1cn([C@H]2C[C@H](O)[C@@H](CO)O2)c(=O)[nH]c1=O [Thymidine]	0.1	
C/C=C/C#CC#C[C@@H](O)[C@@H](/C=C/CCCO)O[C@@H]1O[C@H](CO)[C@@H](O)[C@H](O)[C@H]1O [Lobetyolin]	-0.8	
CC[C@H](CC[C@@H](C)[C@H]1CC[C@H]2[C@@H]3CC[C@H]4C[C@@H](O)CC[C@]4(C)[C@H]3CC[C@]12C)C(C)C [Stigmastanol]	8.9	
COc1ccc(-c2oc3c(CCC(C)(C)O)c(O)cc(O)c3c(=O)c2O)cc1 [Wushanicaritin]	-0.1	
C[C@@H]1O[C@@H](OC[C@H]2O[C@@H](Oc3c(-c4ccc(O)cc4)oc4cc(O)cc(O)c4c3=O)[C@H](O[C@@H]3O[C@@H](C)[C@H](O)[C@@H](O)[C@H]3O)[C@@H](O)[C@@H]2O)[C@H](O)[C@H](O)[C@H]1O [Clitorin]	-0.5	
CC1CCCCC1=O (stereo not drawn) [2-Methylcyclohexanone]	-0.1	
CC(=O)O[C@]12CCC(C)=CC[C@]13CC[C@H]2[C@@](C)(/C=C/C=C(\C)C(=O)O)OC3=O [Pseudolaric Acid A]	0.9	
NCCC(=O)N[C@@H](Cc1cnc[nH]1)C(=O)O [L-Carnosine]	-3.2	
NC(=O)c1cccnc1 [Nicotinamide]	-0.3	

Structure (SMILES)	OC43 Inhibition rate [%]	OC43 Inhibition rate (OC43 Inhibition rate, 24 h) [%]
CC(C)C[C@H](N)C(=O)O [L-Leucine]	-1.2	
COc1cc2c3c(cc4ccccc4c3c1OC)N(C)CC2 [Dehydronuciferine]	-1.8	
C[C@@H](O)[C@@H](C)O [2,3-Butanediol]		1.3
O=C(O)C[C@H](O)C(=O)O [(S)-Malic acid]	-1.2	
C=C(NC(=O)C(=C)NC(=O)c1csc(C2=N[C@@H]3c4csc(n4)[C@H]4NC(=O)c5csc(n5)[C@H]([C@](C)(O)[C@@H](C)O)NC(=O)[C@H]5CSC(=N5)/C(=C/C)NC(=O)[C@H]([C@@H](C)O)NC(=O)c5csc(n5)[C@]3(CC2)NC(=O)[C@H](C)NC(=O)C(=C)NC(=O)[C@H](C)NC(=O)[C@H]([C@@H](C)CC)N[C@@H]2C=Cc3c([C@H](C)O)cc(nc3[C@H]2O)C(=O)O[C@@H]4C)n1)C(N)=O [Thiostrepton]	-1.1	
CO[C@H]([C@H](C)[C@H]1O[C@@]2(CC[C@@](C)([C@H]3CC[C@@](C)([C@@H]4O[C@@H]([C@H]5O[C@@](O)(CO)[C@H](C)C[C@@H]5C)C[C@@H]4C)O3)O2)C[C@H](O)[C@H]1C)[C@H](C)C(=O)O [Monensin B]	8.1	
NC(=O)CC(N)C(=O)O (racemic) [DL-Asparagine]	0.4	
O=C(O)CCCCCCCCC(=O)O [Decanedioic acid]	1.5	
CCCCCCCC/C=C\CCCCCCCCCCCC(=O)O [Erucic acid]	0.1	
COC(=O)[C@@]12OC[C@]34[C@H]([C@@H](O)[C@@H]1O)[C@@]1(C)CC(=O)C(O)=C(C)[C@@H]1C[C@H]3OC(=O)[C@H](OC(=O)CC(C)C)[C@@H]24 [Bruceine A]	11.8	
CC1(C)C=Cc2c(ccc(C(=O)/C=C/c3ccc(O)cc3)c2O)O1 [4-Hydroxylonchocarpin]		21.9
COc1cc2c(cc1OC)[C@H]1[C@@H](C)c3ccc(OC)c(OC)c3CN1CC2 [Corydaline]	0.6	
CC(=O)NCCCC[C@H](N)C(=O)O [Nepsilon-Acetyl-L-lysine]	-0.2	
COc1cc2ccc(=O)oc2c(O)c1OC [Fraxidin]	0.1	
CCCCCc1ccco1 [2-Pentylfuran]	0.3	
C[C@@H]1CC[C@@]2(OC1)O[C@H]1C[C@H]3[C@@H]4CC=C5C[C@@H](O[C@@H]6O[C@H](CO)[C@@H](O)[C@H](O[C@@H]7O[C@H](CO)[C@@H](O)[C@H](O)[C@H]7O)[C@H]6O[C@@H]6O[C@@H](C)[C@H](O)[C@@H](O)[C@H]6O)CC[C@]5(C)[C@H]4CC[C@]3(C)[C@H]1[C@@H]2C [Gracillin]	7	
CNCC(O)c1ccc(O)cc1 (stereo not drawn) [Synephrine]		-0.3
CO[C@H]1C(=O)[C@]2(C)[C@@H](OC)C[C@H]3OC[C@@]3(OC(C)=O)[C@H]2[C@H](OC(=O)c2ccccc2)[C@]2(O)C[C@H](OC(=O)[C@H](O)[C@@H](NC(=O)OC(C)(C)C)c3ccccc3)C(C)=C1C2(C)C [Cabazitaxel]	-5.4	
C[C@]1(C(=O)O)CCC[C@]2(C)c3cc(O)ccc3CC[C@@H]12 [Podocarpic acid]	-0.2	
O=C1c2ccccc2C(=O)c2cc(CO)ccc21 [2-(Hydroxymethyl)anthraquinone]	3.2	
CC(C)=CCC/C(C)=C/COc1ccc2ccc(=O)oc2c1 [Auraptene]	0	
